The source gives many values for each of these; only a part stands here.
Assay: Dynamic micro PET-CT imaging, tracer uptake in brain, muscle and bone
Format: in vivo
Conditions: male CD-1 mice, iv
Method: (§1) A Siemens Inveon® Multimodality Scanner (Siemens, Germany) is used for micro PET-CT imaging. Male CD-1 (6-week-old, ˜30 g) mice are anesthetized with 3% isoflurane/97% oxygen and placed on the bed of the scanner. The mice are administered [^18F]N-(4-(1,2,4,5-tetrazin-3-yl)benzyl)-2-fluoronicotinamide via a bolus intravenous tail vein injection (˜350 ρCi in a total volume of 150 μL saline). A total of four dynamic PET scans are conducted, followed by a short high-resolution CT scan for anatomical registration. PET images are generated for each minute of the acquisition time. Uptake of the tracer in the brain, muscle, and bone are determined by visually drawing regions of interest (ROIs) based on the fused PET/CT images and the corresponding activity values are determined using the Inveon® Research Workplace software. All values are represented as % injected dose per gram (% ID/g).
as §1, with “g) mice were anesthetized with” for “g) mice are anesthetized with”, “are administered [^18F]N-(4-(1,2,4,5-tetrazin-3-yl)benzyl)-6-fluoropicolinamide via a” for “are administered [^18F]N-(4-(1,2,4,5-tetrazin-3-yl)benzyl)-2-fluoronicotinamide via a”, “vein injection (˜300 ρCi in” for “vein injection (˜350 ρCi in”
as §1, with “PET/CT” for “PET-CT”, “30-40” for “˜30”, “[^18F]N-(4-(1,2,4,5-tetrazin-3-yl)benzyl)-6-fluoronicotinamide” for “[^18F]N-(4-(1,2,4,5-tetrazin-3-yl)benzyl)-2-fluoronicotinamide”, “(˜300” for “(˜350”, “two” for “four”

O=C(NCc1ccc(-c2nncnn2)cc1)c1ccc([18F])nc1 [Comparative Example 6, [^18]FN-(4-(1,2,4,5-tetrazin-3-yl)benzyl)-6-fluoronicotinamide]
Bone Mean % ID/g (Time 0.0 min): 0.00 % ID/g
Brain Mean % ID/g (Time 0.0 min): 0.00 % ID/g
Muscle Mean % ID/g (Time 0.0 min): 0.00 % ID/g
Bone Mean % ID/g (Time 33.5 min): 1.01 % ID/g
Brain Mean % ID/g (Time 33.5 min): 1.36 % ID/g
Muscle Mean % ID/g (Time 33.5 min): 1.00 % ID/g
Bone Mean % ID/g (Time 34.5 min): 1.06 % ID/g
Brain Mean % ID/g (Time 34.5 min): 1.34 % ID/g
Muscle Mean % ID/g (Time 34.5 min): 1.04 % ID/g
Bone Mean % ID/g (Time 35.5 min): 0.97 % ID/g
Brain Mean % ID/g (Time 35.5 min): 1.33 % ID/g
Muscle Mean % ID/g (Time 35.5 min): 1.04 % ID/g
Bone Mean % ID/g (Time 36.5 min): 1.01 % ID/g
Brain Mean % ID/g (Time 36.5 min): 1.30 % ID/g
Muscle Mean % ID/g (Time 36.5 min): 1.04 % ID/g
Bone Mean % ID/g (Time 37.5 min): 0.99 % ID/g
Brain Mean % ID/g (Time 37.5 min): 1.31 % ID/g
Muscle Mean % ID/g (Time 37.5 min): 1.03 % ID/g
Bone Mean % ID/g (Time 38.5 min): 1.12 % ID/g
Brain Mean % ID/g (Time 38.5 min): 1.29 % ID/g
Muscle Mean % ID/g (Time 38.5 min): 1.03 % ID/g
Bone Mean % ID/g (Time 39.5 min): 1.13 % ID/g
Brain Mean % ID/g (Time 39.5 min): 1.26 % ID/g
Muscle Mean % ID/g (Time 39.5 min): 1.03 % ID/g
Bone Mean % ID/g (Time 40.5 min): 1.07 % ID/g
Brain Mean % ID/g (Time 40.5 min): 1.25 % ID/g
Muscle Mean % ID/g (Time 40.5 min): 1.05 % ID/g
Bone Mean % ID/g (Time 41.5 min): 1.06 % ID/g
Brain Mean % ID/g (Time 41.5 min): 1.26 % ID/g
Muscle Mean % ID/g (Time 41.5 min): 1.08 % ID/g
Bone Mean % ID/g (Time 42.5 min): 1.00 % ID/g
Brain Mean % ID/g (Time 42.5 min): 1.23 % ID/g
Muscle Mean % ID/g (Time 42.5 min): 1.06 % ID/g
Bone Mean % ID/g (Time 43.5 min): 1.09 % ID/g
Brain Mean % ID/g (Time 43.5 min): 1.23 % ID/g
Muscle Mean % ID/g (Time 43.5 min): 1.07 % ID/g
Bone Mean % ID/g (Time 44.5 min): 0.97 % ID/g
Brain Mean % ID/g (Time 44.5 min): 1.21 % ID/g
Muscle Mean % ID/g (Time 44.5 min): 1.02 % ID/g
Bone Mean % ID/g (Time 45.5 min): 1.09 % ID/g
Brain Mean % ID/g (Time 45.5 min): 1.21 % ID/g
Muscle Mean % ID/g (Time 45.5 min): 1.10 % ID/g
Bone Mean % ID/g (Time 46.5 min): 1.04 % ID/g
Brain Mean % ID/g (Time 46.5 min): 1.19 % ID/g
Muscle Mean % ID/g (Time 46.5 min): 1.06 % ID/g
Bone Mean % ID/g (Time 47.5 min): 1.07 % ID/g
Brain Mean % ID/g (Time 47.5 min): 1.19 % ID/g
Muscle Mean % ID/g (Time 47.5 min): 1.07 % ID/g
Bone Mean % ID/g (Time 48.5 min): 1.06 % ID/g
Brain Mean % ID/g (Time 48.5 min): 1.18 % ID/g
Muscle Mean % ID/g (Time 48.5 min): 1.06 % ID/g
Bone Mean % ID/g (Time 49.5 min): 1.03 % ID/g
Brain Mean % ID/g (Time 49.5 min): 1.18 % ID/g
Muscle Mean % ID/g (Time 49.5 min): 1.06 % ID/g
Bone Mean % ID/g (Time 50.5 min): 1.27 % ID/g
Brain Mean % ID/g (Time 50.5 min): 1.17 % ID/g
Muscle Mean % ID/g (Time 50.5 min): 1.11 % ID/g
Bone Mean % ID/g (Time 51.5 min): 1.15 % ID/g
Brain Mean % ID/g (Time 51.5 min): 1.16 % ID/g
Muscle Mean % ID/g (Time 51.5 min): 1.09 % ID/g
Bone Mean % ID/g (Time 52.5 min): 1.19 % ID/g
Brain Mean % ID/g (Time 52.5 min): 1.15 % ID/g
Muscle Mean % ID/g (Time 52.5 min): 1.10 % ID/g
Bone Mean % ID/g (Time 53.5 min): 1.08 % ID/g
Brain Mean % ID/g (Time 53.5 min): 1.14 % ID/g
Muscle Mean % ID/g (Time 53.5 min): 1.10 % ID/g
Bone Mean % ID/g (Time 54.5 min): 1.11 % ID/g
Brain Mean % ID/g (Time 54.5 min): 1.13 % ID/g
Muscle Mean % ID/g (Time 54.5 min): 1.10 % ID/g
Bone Mean % ID/g (Time 55.5 min): 1.13 % ID/g
Brain Mean % ID/g (Time 55.5 min): 1.09 % ID/g
Muscle Mean % ID/g (Time 55.5 min): 1.11 % ID/g
Bone Mean % ID/g (Time 56.5 min): 1.13 % ID/g
Brain Mean % ID/g (Time 56.5 min): 1.09 % ID/g
Muscle Mean % ID/g (Time 56.5 min): 1.05 % ID/g
Bone Mean % ID/g (Time 57.5 min): 1.09 % ID/g
Brain Mean % ID/g (Time 57.5 min): 1.09 % ID/g
Muscle Mean % ID/g (Time 57.5 min): 1.13 % ID/g
Bone Mean % ID/g (Time 58.5 min): 1.03 % ID/g
Brain Mean % ID/g (Time 58.5 min): 1.08 % ID/g
Muscle Mean % ID/g (Time 58.5 min): 1.05 % ID/g
Bone Mean % ID/g (Time 59.5 min): 1.07 % ID/g
Brain Mean % ID/g (Time 59.5 min): 1.09 % ID/g
Muscle Mean % ID/g (Time 59.5 min): 1.09 % ID/g

Source: US20240034722A1, “PRETARGETING IMAGING AGENTS” (Eli Lilly and Company, priority 2020, published 2024)
